{"sequences": {"note": "Sequences of proteins named here, by UniProt entry; tags and fusion partners are left off.", "UniProt O14746": "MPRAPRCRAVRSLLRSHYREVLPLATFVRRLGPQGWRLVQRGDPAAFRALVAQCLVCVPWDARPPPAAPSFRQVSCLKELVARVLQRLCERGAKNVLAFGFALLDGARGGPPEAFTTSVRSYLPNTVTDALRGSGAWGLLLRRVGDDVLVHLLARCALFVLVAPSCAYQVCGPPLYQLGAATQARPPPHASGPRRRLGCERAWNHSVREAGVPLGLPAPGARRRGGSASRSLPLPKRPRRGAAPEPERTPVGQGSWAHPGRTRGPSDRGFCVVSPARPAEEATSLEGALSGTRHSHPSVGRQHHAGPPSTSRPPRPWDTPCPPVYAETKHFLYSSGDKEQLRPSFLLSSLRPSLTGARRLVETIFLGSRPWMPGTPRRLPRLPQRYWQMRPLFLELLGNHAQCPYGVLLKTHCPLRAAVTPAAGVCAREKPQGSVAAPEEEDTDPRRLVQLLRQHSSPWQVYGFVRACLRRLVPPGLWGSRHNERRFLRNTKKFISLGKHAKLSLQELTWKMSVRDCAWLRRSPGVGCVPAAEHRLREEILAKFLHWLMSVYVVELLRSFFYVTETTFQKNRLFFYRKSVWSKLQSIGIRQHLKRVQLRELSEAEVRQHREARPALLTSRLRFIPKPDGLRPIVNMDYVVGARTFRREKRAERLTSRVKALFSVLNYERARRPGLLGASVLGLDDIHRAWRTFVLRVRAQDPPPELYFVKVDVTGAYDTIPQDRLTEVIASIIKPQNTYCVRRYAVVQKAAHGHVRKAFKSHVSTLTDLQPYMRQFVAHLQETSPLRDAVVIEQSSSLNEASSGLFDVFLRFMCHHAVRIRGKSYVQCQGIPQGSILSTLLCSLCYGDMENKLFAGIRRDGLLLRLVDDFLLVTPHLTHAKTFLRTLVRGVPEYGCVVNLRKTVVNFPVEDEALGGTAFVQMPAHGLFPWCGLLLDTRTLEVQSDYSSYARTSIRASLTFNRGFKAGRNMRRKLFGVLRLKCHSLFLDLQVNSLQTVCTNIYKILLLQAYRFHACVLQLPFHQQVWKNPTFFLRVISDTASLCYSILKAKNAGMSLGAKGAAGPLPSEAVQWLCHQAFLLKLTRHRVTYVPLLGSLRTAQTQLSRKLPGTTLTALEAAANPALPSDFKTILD"}, "source": "paper PMC11744579", "binders": {"B1": {"name": "TRIM43 (enzyme, UniProt Q96BQ3 1-446)", "chain": "MDSDFSHAFQKELTCVICLNYLVDPVTICCGHSFCRPCLCLSWEEAQSPANCPACREPSPKMDFKTNILLKNLVTIARKASLWQFLSSEKQICGTHRQTKKMFCDMDKSLLCLLCSNSQEHGAHKHHPIEEAAEEHREKLLKQMRILWKKIQENQRNLYEEGRTAFLWRGNVVLRAQMIRNEYRKLHPVLHKEEKQHLERLNKEYQEIFQQLQRSWVKMDQKSKHLKEMYQELMEMCHKPDVELLQDLGDIVARSESVLLHMPQPVNPELTAGPITGLVYRLNRFRVEISFHFEVTNHNIRLFEDVRSWMFRRGPLNSDRSDYFAAWGARVFSFGKHYWELDVDNSCDWALGVCNNSWIRKNSTMVNSEDIFLLLCLKVDNHFNLLTTSPVFPHYIEKPLGRVGVFLDFESGSVSFLNVTKSSLIWSYPAGSLTFPVRPFFYTGHR"}}, "molecular_target": "telomerase reverse transcriptase (TERT) (UniProt O14746)", "assay": "co-IP; HEK293T cells transfected with TERT-Flag and TRIM43-HA or SYVN1-HA, with or without pEGFP-CagA; lysis in EBC buffer (50 mM Tris pH 7.5, 120 mM NaCl, 0.5% NP-40); anti-HA or anti-Flag agarose beads, 4 °C, 3 h; washed with NETN buffer; western blot", "note": "These are yes or no findings as the source states them, for the method shown. In cells and extracts the contact can be indirect. Some results given as binding are weak or reduced against the parent protein; the word gives no strength."}
{"binder": "B1", "values": [{"measurement": "binding", "value": "binds"}]}
